The values below come from ChEMBL document CHEMBL5154815, “A Series of Substituted Bis-Aminotriazines Are Activators of the Natriuretic Peptide Receptor C” (J Med Chem, 2022).

Data set [1] can be described thus: Stability in Sprague-Dawley rat hepatocytes assessed as clearance per […] at 1 uM after 20 mins by LC-MS/MS analysis. It counts as ADME, cell-based, Hepatocyte.
Data set [2] can be described thus: Protein binding in human plasma by equilibrium dialysis assay. For orientation: In equilibrium dialysis only unbound substance equilibrates across the membrane.

Molecules are shown by their SMILES.

On to `CC(=O)Nc1ccc(Nc2ncnc(N[C@@H](CC(C)C)C(=O)OC(C)(C)C)n2)cc1`, for which, in data set [1], the CLH is 113.7 µL/min. For the same molecule, the PPB in data set [2] is 94.1%.
For the molecule `CC(=O)Nc1ccc(Nc2ncnc(N[C@@H](Cc3ccccc3)C(=O)OC(C)(C)C)n2)cc1`, the CLH in data set [1] worked out at 230.4 µL/min. The molecule further displayed a PPB in data set [2] of 97.2%.
